Test results from ChEMBL document CHEMBL4316593 (Eur J Med Chem, 2019).
The source gives many values for each of these; only a part stands here.

What was measured:
Format in all cases: cell-based
Conditions in all cases: U-87MG ATCC
[1] = Inhibition of RTK/PI3K/AKT/mTOR signaling in human U87 cells assessed as down regulation of TRIB3 gene expression at cytotoxic IC50 measured after 48 hrs relative to control
[2] = Inhibition of RTK/PI3K/AKT/mTOR signaling in human U87 cells assessed as down regulation of B4GALNT1 gene expression at cytotoxic IC50 measured after 48 hrs relative to control
[3] = Inhibition of RTK/PI3K/AKT/mTOR signaling in human U87 cells assessed as down regulation of ZNF430 gene expression at cytotoxic IC50 measured after 48 hrs relative to control
[4] = Inhibition of RTK/PI3K/AKT/mTOR signaling in human U87 cells assessed as down regulation of METAP2 gene expression at cytotoxic IC50 measured after 48 hrs relative to control
[5] = Inhibition of RTK/PI3K/AKT/mTOR signaling in human U87 cells assessed as down regulation of EDC3 gene expression at cytotoxic IC50 measured after 48 hrs relative to control
[6] = Inhibition of RTK/PI3K/AKT/mTOR signaling in human U87 cells assessed as up regulation of AK4 gene expression at cytotoxic IC50 measured after 48 hrs relative to control
[7] = Inhibition of RTK/PI3K/AKT/mTOR signaling in human U87 cells assessed as up regulation of lysine acetyltransferase 6B gene expression at cytotoxic IC50 measured after 48 hrs relative to control
[8] = Inhibition of RTK/PI3K/AKT/mTOR signaling in human U87 cells assessed as up regulation of complement C3 gene expression at cytotoxic IC50 measured after 48 hrs relative to control
[9] = Inhibition of RTK/PI3K/AKT/mTOR signaling in human U87 cells assessed as down regulation of AP1G1 gene expression at cytotoxic IC50 measured after 48 hrs relative to control
[10] = Inhibition of RTK/PI3K/AKT/mTOR signaling in human U87 cells assessed as down regulation of PPP1CA gene expression at cytotoxic IC50 measured after 48 hrs relative to control
[11] = Inhibition of RTK/PI3K/AKT/mTOR signaling in human U87 cells assessed as down regulation of TTC14 gene expression at cytotoxic IC50 measured after 48 hrs relative to control
[12] = Inhibition of RTK/PI3K/AKT/mTOR signaling in human U87 cells assessed as up regulation of SLC10A5 gene expression at cytotoxic IC50 measured after 48 hrs relative to control
[13] = Inhibition of RTK/PI3K/AKT/mTOR signaling in human U87 cells assessed as down regulation of PSMA3 gene expression at cytotoxic IC50 measured after 48 hrs relative to control
[14] = Inhibition of RTK/PI3K/AKT/mTOR signaling in human U87 cells assessed as up regulation of phosphoribosyl-aminoimidazole carboxylase and phosphoribosyl-aminoimidazole-succinocarboxamide synthase gene expression at cytotoxic IC50 measured after 48 hrs relative to control
[15] = Inhibition of RTK/PI3K/AKT/mTOR signaling in human U87 cells assessed as up regulation of MRT4 homolog, ribosome maturation factor gene expression at cytotoxic IC50 measured after 48 hrs relative to control
[16] = Inhibition of RTK/PI3K/AKT/mTOR signaling in human U87 cells assessed as up regulation of KRT86 gene expression at cytotoxic IC50 measured after 48 hrs relative to control
[17] = Inhibition of RTK/PI3K/AKT/mTOR signaling in human U87 cells assessed as up regulation of KRT80 gene expression at cytotoxic IC50 measured after 48 hrs relative to control
[18] = Inhibition of RTK/PI3K/AKT/mTOR signaling in human U87 cells assessed as up regulation of GGA1 gene expression at cytotoxic IC50 measured after 48 hrs relative to control
[19] = Inhibition of RTK/PI3K/AKT/mTOR signaling in human U87 cells assessed as down regulation of USP20 gene expression at cytotoxic IC50 measured after 48 hrs relative to control
[20] = Inhibition of RTK/PI3K/AKT/mTOR signaling in human U87 cells assessed as down regulation of SNX2 gene expression at cytotoxic IC50 measured after 48 hrs relative to control
[21] = Inhibition of RTK/PI3K/AKT/mTOR signaling in human U87 cells assessed as up regulation of aldehyde dehydrogenase 1 family member A3 gene expression at cytotoxic IC50 measured after 48 hrs relative to control
[22] = Inhibition of RTK/PI3K/AKT/mTOR signaling in human U87 cells assessed as down regulation of GLYR1 gene expression at cytotoxic IC50 measured after 48 hrs relative to control
[23] = Inhibition of RTK/PI3K/AKT/mTOR signaling in human U87 cells assessed as up regulation of ABCC3 gene expression at cytotoxic IC50 measured after 48 hrs relative to control
[24] = Inhibition of RTK/PI3K/AKT/mTOR signaling in human U87 cells assessed as down regulation of RNR2 gene expression at cytotoxic IC50 measured after 48 hrs relative to control
[25] = Inhibition of RTK/PI3K/AKT/mTOR signaling in human U87 cells assessed as up regulation of DNAJA3 gene expression at cytotoxic IC50 measured after 48 hrs relative to control
[26] = Inhibition of RTK/PI3K/AKT/mTOR signaling in human U87 cells assessed as up regulation of CA11 gene expression at cytotoxic IC50 measured after 48 hrs relative to control
[27] = Inhibition of RTK/PI3K/AKT/mTOR signaling in human U87 cells assessed as down regulation of VRK1 gene expression at cytotoxic IC50 measured after 48 hrs relative to control
[28] = Inhibition of RTK/PI3K/AKT/mTOR signaling in human U87 cells assessed as down regulation of MCM2 gene expression at cytotoxic IC50 measured after 48 hrs relative to control
[29] = Inhibition of RTK/PI3K/AKT/mTOR signaling in human U87 cells assessed as up regulation of protocadherin 1 gene expression at cytotoxic IC50 measured after 48 hrs relative to control
[30] = Inhibition of RTK/PI3K/AKT/mTOR signaling in human U87 cells assessed as up regulation of caveolin 1 gene expression at cytotoxic IC50 measured after 48 hrs relative to control
[31] = Inhibition of RTK/PI3K/AKT/mTOR signaling in human U87 cells assessed as down regulation of SERPINB8 gene expression at cytotoxic IC50 measured after 48 hrs relative to control
[32] = Inhibition of RTK/PI3K/AKT/mTOR signaling in human U87 cells assessed as down regulation of MGAM gene expression at cytotoxic IC50 measured after 48 hrs relative to control

`CC(=O)C(=NNc1ccccc1C#N)C(C)=O` gave a log2FC [1] of -0.541, a log2FC [2] of -0.958 and a log2FC [3] of -1.97. It also gave a log2FC [4] of -0.416, a log2FC [5] of -0.741 and a log2FC [6] of 1.91. It also gave a log2FC [7] of 1.23, a log2FC [8] of 2.37 and a log2FC [9] of -0.588. The log2FC [10] was -0.46, the log2FC [11] was -1.13 and the log2FC [12] was 3.31. For the same compound, the log2FC [13] was -0.584, the log2FC [14] was 0.925 and the log2FC [15] was 0.751. It also gave a log2FC [16] of 3.1, a log2FC [17] of 3.39 and a log2FC [18] of 0.531. For the same compound, the log2FC [19] was -0.827, the log2FC [20] was -0.772 and the log2FC [21] was 1.08. For the same compound, the log2FC [22] was -0.751, the log2FC [23] was 1.94 and the log2FC [24] was -1.47. For the same compound, the log2FC [25] was 0.498, the log2FC [26] was 2.24 and the log2FC [27] was -0.699. It also gave a log2FC [28] of -1.53, a log2FC [29] of 1.39 and a log2FC [30] of 1.24. The log2FC [31] was -1.53 and the log2FC [32] was -2.93.
